The assay can be described thus: qHTS Assay for Lipid Storage Modulators in Drosophila S3 Cells.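 On cell number change: cells counted by Cell Tracker Red CMTPX staining in the red channel.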 Particulars: BODIPY lipid droplet fluorescence, 18-24 h; for cell number change: measured here: cell count max response, cells fed with added oleic acid. Put shortly:
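Laser-scanning cytometry quantifies lipid droplet accumulation (500–530 nm total intensity; droplet/cell object ratio) in oleic acid-fed (400 uM added) Drosophila S3 cells treated with a concentration series. 20 uM Triacsin C defined 100% inhibition.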
Background: Quantitative high-throughput screening tests each substance at several concentrations.

Setting [1] is: measured here: cell number channel AC50, cells fed with added oleic acid.
Where [2] appears, read: measured here: lipid fluorescence (Fed channel) AC50, cells fed with added oleic acid.

The values below come from PubChem BioAssay AID2685 (National Center for Advancing Translational Sciences (NCATS), 2010).

The list shows a part of the results. The main result of the screen is listed elsewhere. These columns were measured beside it and carry no call. Compounds called inactive in the main read-out are mostly missing here. Potencies come from curve fits of mixed quality, noted in brackets.

Regarding `CCOC(=O)c1c(NC(=O)c2nn(CC)cc2Br)c(C#N)nn1-c1ccccc1`, under setting [1], the half-maximal activity concentration (AC50) (as a rule, the concentration giving half of the maximal activity seen) is 1.3 µM [rising, partial curve].

In the case of `O=C(CSc1nnc(COc2ccccc2)o1)NCCc1ccccc1`, the cell number change was determined as 20.4%. Also, the AC50 under setting [1] is 0.00411 µM [rising, full curve, poor fit].

As for `Cc1ccc(CNC(=O)/C(C#N)=C\c2ccc(N(C)C)cc2)cc1`, the cell number change was -36.5%. Moreover, under setting [1], the half-maximal activity concentration (AC50) is 29.1 µM [falling, single point].

With `CC(=O)N1CCN(CC(=O)NC(=O)Nc2ccc3c(c2)OCCO3)CC1`, the cell number change is -9.72%. For the same compound, under setting [2], the concentration at half-maximal activity (AC50) was 0.82 µM [rising, full curve, poor fit].

Turning to `CCOC(=O)c1cnc2c(N=Nc3ccccc3)c(N)nn2c1N`, under setting [2], the concentration at half-maximal activity (AC50) was 0.411 µM [falling, partial curve, poor fit].

Consider `CC(C)CCn1c(SCC(=O)c2ccccc2)nc2c1c(=O)[nH]c(=O)n2C`, for which the cell number change was 10.4%.

With `Cc1ccc(-c2noc(CNC(=O)c3ccc4c(c3)OCO4)n2)cc1`, the cell number change stood at 25.6%.

`CN1CCN(C(=O)NC2CCCN2S(=O)(=O)c2ccc(Cl)cc2)CC1` (centres undefined): the cell number change was -20.5%.

As for `N/C(=N\OC(=O)CCCOc1ccccc1)c1ccc([N+](=O)[O-])cc1`, the cell number change was -26.6%. Also, under setting [2], the concentration at half-maximal activity (AC50) is 1.84 µM [falling, partial curve, poor fit].

Consider `COc1ccc(CC(=O)n2[nH]c(=O)cc(C)c2=O)cc1OC`, for which the cell number change is -59.5%. Further, under setting [1], the AC50 is 29.1 µM [falling, single point]. Further, under setting [2], the AC50 was 29.1 µM [falling, single point].

With `O=C(CNC(=S)N(Cc1ccccc1Cl)C1CCCC1)NCCCN1CCOCC1`, the cell number change is -19.6%.

As to `CC(=O)Nc1ccc(NC(=O)CCNS(=O)(=O)c2cccc3nsnc23)cc1`, the cell number change worked out at 5.87%. In addition, the concentration at half-maximal activity (AC50) under setting [1] is 0.731 µM [falling, full curve]. Moreover, the half-maximal activity concentration (AC50) under setting [2] was 6.51 µM [falling, single point].

As to `O=C1CC(SC(=Nc2ccccc2)Nc2ccccc2)C(=O)N1c1ccc(Cl)c(Cl)c1` (centres undefined), the cell number change is 10.2%. Also, the AC50 under setting [2] is 20.6 µM [rising, partial curve, poor fit].

`CCCn1c(C(C)Nc2nc(-c3ccc(C)cc3)cs2)nc2cc(Cl)c(Cl)cc21` (centres undefined): the cell number change stood at 17.8%. For the same compound, the AC50 under setting [2] is 29.1 µM [rising, single point].

For the compound `Cc1cc(C)n(CCOC(=O)c2sc3ccccc3c2Cl)n1`, the cell number change is -48.2%. The AC50 under setting [1] was 0.00517 µM [falling, full curve, poor fit]. Under setting [2], the concentration at half-maximal activity (AC50) was 0.00461 µM [falling, full curve, poor fit].

For `O=C(CCNC(=O)N1CC(=O)Nc2ccccc21)NCc1cccc(Cl)c1`, the AC50 under setting [2] was 6.51 µM [falling, single point].

Consider `COc1cc(/C=C2/C(=O)ON=C2C)cc(Cl)c1O`, for which the cell number change was -5.41%. For the same compound, under setting [2], the AC50 is 29.1 µM [falling, single point].

For `O=C(O)c1ccccc1-c1csc(-c2ccccc2)n1`, the cell number change is -88.2%.

On to `O=C(O)C(NS(=O)(=O)c1cccc2nsnc12)c1ccccc1` (centres undefined), for which the cell number change is -19.2%. Besides, the AC50 under setting [1] was 0.92 µM [falling, full curve, poor fit].

In the case of `CCOc1ccc(-c2nc(CSCC(=O)N3CCN(c4cccc(OC)c4)CC3)c(C)o2)cc1`, the cell number change is -46.1%. Besides, under setting [1], the concentration at half-maximal activity (AC50) is 16.4 µM [falling, single point]. The half-maximal activity concentration (AC50) under setting [2] is 29.1 µM [falling, single point].

Consider `O=C(CNC(=O)C1CCCCC1)OC(C(=O)c1ccccc1)c1ccccc1` (centres undefined), for which the cell number change was -0.582%. Moreover, the AC50 under setting [1] is 0.651 µM [falling, partial curve, poor fit]. Also, under setting [2], the AC50 was 0.116 µM [falling, single point].

On to `S=C(NCCc1ccc(Cl)cc1)NC1CCCCC1`, for which the cell number change stood at 3.52%.

`COc1ccccc1N1CCN(Cc2cc(=O)c(OCC(=O)Nc3ccccc3)co2)CC1`: under setting [1], the concentration at half-maximal activity (AC50) is 0.13 µM [rising, full curve, poor fit].

As to `Cc1cc(C)c(NC(=O)CNC(=O)COC(=O)CN2C(=O)NC3(CCCC3)C2=O)c(C)c1`, the half-maximal activity concentration (AC50) under setting [1] is 5.8 µM [rising, partial curve].

For `CCNC(=O)C1CC(=O)N(Cc2ccc3c(c2)OCO3)C(=Nc2ccc(OCC)cc2)S1` (centres undefined), the concentration at half-maximal activity (AC50) was 0.58 µM [rising, single point] under setting [1] and 0.58 µM [rising, single point] under setting [2].

Take `CN(C(=O)c1c(Br)cnn1C)C12CC3CC(CC(C3)C1)C2`: the cell number change was -39.3%. The half-maximal activity concentration (AC50) under setting [1] was 0.461 µM [falling, full curve, poor fit]. For the same compound, the AC50 under setting [2] is 0.231 µM [falling, full curve, poor fit].

Turning to `Cc1c(C(=O)NCCc2ccc(Cl)cc2)sc2nc3n(c(=O)c12)CCC3`, the cell number change was -71%.

Regarding `COCCCn1c(=S)[nH]c2ncccc2c1=O`, the cell number change was -12.7%. Also, the concentration at half-maximal activity (AC50) under setting [1] is 0.00461 µM [falling, full curve, poor fit].

With `CN(c1ccccc1)S(=O)(=O)c1ccc(C(=O)NCCc2ccc(F)cc2)cc1`, the cell number change was determined as 29.1%.

On to `C[C@@H](OC(=O)N(C)Cc1ccccc1)[C@H]1O[C@]2(C)CCCC[C@H]1O2`, for which the cell number change was -22.1%. Besides, under setting [2], the AC50 is 0.00517 µM [falling, full curve, poor fit].

For the compound `CCOc1ccc2c(c1)C(c1ccc(C)o1)=NNC(c1ccncc1)=N2`, the cell number change came out at 89.5%.

Turning to `CC(Sc1nnc(N)s1)C(=O)Nc1ccc2c(c1)OCO2` (centres undefined), the cell number change was determined as 27.7%.

On to `CCCCCCn1c(=O)c(F)cn(Cc2ccc(OC)c([N+](=O)[O-])c2)c1=O`, for which the concentration at half-maximal activity (AC50) under setting [2] was 0.103 µM [rising, full curve, poor fit].

For the compound `Cc1nc2c(-c3ccccc3)c(C)nn2c(C)c1CCC(=O)N1CCOCC1`, the AC50 under setting [2] was 3.66 µM [rising, single point].

Take `Cc1ccccc1C(=O)Nc1ccnn1C1CCN(C2CCSCC2)CC1`: the cell number change was found to be 21.4%. Moreover, the AC50 under setting [2] is 13 µM [rising, partial curve, poor fit].

In the case of `O=C(/C=C/c1ccc(Br)cc1)c1ccco1`, the cell number change is -23.5%. Also, the AC50 under setting [2] is 32.6 µM [falling, partial curve].

Turning to `Cc1ccc[n+](CC(=O)Nc2cccc([N+](=O)[O-])c2)c1`, the cell number change was -49%. Moreover, the AC50 under setting [1] is 20.6 µM [falling, single point]. The AC50 under setting [2] is 20.6 µM [falling, partial curve].

For `CC(=O)Nc1oc(-c2cccc3ccccc23)nc1C#N`, the cell number change came to 6.94%. Under setting [1], the AC50 is 5.17 µM [falling, single point].

Take `Cc1cc(NS(=O)(=O)c2ccc(NC(=S)NC(=O)/C=C/c3ccccc3)cc2)no1`: the cell number change was -14.5%. For the same compound, the AC50 under setting [2] was 3.98 µM [falling, full curve, poor fit].

For `Cc1c(C(=O)NCc2ccccc2F)oc2ccccc12`, the cell number change stood at 7.57%. Also, under setting [2], the AC50 was 16.4 µM [falling, single point].

With `CCCCn1nnnc1SCC(=O)N(CC)CC`, the cell number change was -7.8%. Further, the AC50 under setting [2] is 0.291 µM [falling, full curve, poor fit].

Consider `C=CCN1C(=O)CS/C1=C(\C#N)S(=O)(=O)c1ccc(C)cc1`, for which the cell number change is -94.9%. Besides, the half-maximal activity concentration (AC50) under setting [1] was 32.6 µM [falling, single point]. Further, the AC50 under setting [2] is 29.1 µM [falling, single point].

With `COc1ccccc1NC(=O)c1cccc(S(=O)(=O)N2CCN(Cc3ccccc3)CC2)c1`, the cell number change was determined as 11.1%. Also, under setting [2], the AC50 is 0.461 µM [rising, full curve, poor fit].

As for `COc1cc(OC)c(-c2nnc(-c3ccc(OC)c(OC)c3OC)o2)cc1OC`, the AC50 is 0.517 µM [rising, full curve] under setting [1] and 0.517 µM [rising, full curve] under setting [2].

On to `CCOC(=O)c1cc(C#N)c(N2CCN(c3ccccn3)CC2)nc1-c1ccccc1`, for which the AC50 under setting [1] was 0.082 µM [rising, full curve, poor fit].

Regarding `O=C(c1cc(-c2ccccc2)n[nH]1)N1CCc2c([nH]c3ccccc23)C1c1ccccn1` (centres undefined), the cell number change was -26.4%.

Turning to `Cc1ccc2nc(NC(=O)C3CCCN3C(=O)OC(C)(C)C)sc2c1` (centres undefined), the cell number change was 7.17%. The AC50 under setting [2] was 0.259 µM [rising, full curve, poor fit].

Take `O=C1C=C(N2CCN(C3=CC(=O)CCC3)CC2)CCC1`: the cell number change is -5.21%. Besides, under setting [2], the concentration at half-maximal activity (AC50) is 3.66 µM [falling, partial curve].

`O=C(O)CCN1C(=O)c2ccc(Oc3ccc([N+](=O)[O-])cc3)cc2C1=O`: the cell number change was found to be 38.2%. The concentration at half-maximal activity (AC50) under setting [1] was 29.1 µM [rising, single point].

Take `Cc1ccc(-c2nc3ncccc3o2)cc1NC(=O)C(C)(C)C`: the cell number change is -4.97%. For the same compound, the AC50 under setting [2] is 0.58 µM [falling, single point].

As for `CCC1Oc2ccc(C)cc2N(CC(=O)N2CCCC2)C1=O` (centres undefined), the cell number change amounted to 18.4%. The half-maximal activity concentration (AC50) under setting [2] is 23.1 µM [rising, single point].

Take `O=C(O)c1ccc(NC(=O)c2ccccc2Br)c(NC(=O)c2ccccc2Br)c1`: the cell number change is -13%. Under setting [2], the half-maximal activity concentration (AC50) was 11.6 µM [rising, partial curve].

On to `Cc1nc(N2CCN(c3ccccn3)CC2)c2c(C)c(C(=O)Nc3ccc(F)cc3Cl)sc2n1`, for which the cell number change turned out to be 10.5%. Moreover, the concentration at half-maximal activity (AC50) under setting [1] was 4.11 µM [falling, single point].

Take `O=C(Nc1cc(C(F)(F)F)ccc1Cl)C(NCc1ccccc1)c1ccccc1` (centres undefined): the cell number change amounted to 8.11%.

For the compound `COc1ccccc1Nc1nc(C2(C)CCC(=O)O2)cs1` (centres undefined), the cell number change came to 100%. Further, the concentration at half-maximal activity (AC50) under setting [1] was 16.4 µM [rising, partial curve]. In addition, the concentration at half-maximal activity (AC50) under setting [2] was 16.4 µM [rising, partial curve].

In the case of `CCCC(C(=O)NC(C)(C)C)N(Cc1ccccc1Cl)C(=O)c1snc(C(N)=O)c1N` (centres undefined), the cell number change was -40.4%. Besides, under setting [1], the AC50 was 25.9 µM [falling, single point]. Moreover, under setting [2], the AC50 is 29.1 µM [falling, single point].

As for `CCC1CCCCN1C(=O)COC(=O)CN(C)S(=O)(=O)c1ccc(NC(C)=O)cc1` (centres undefined), the cell number change was -50%. The AC50 under setting [1] was 29.1 µM [falling, single point].

Take `CC(=O)Cc1nsc(NC(=O)c2ccc(-c3ccc(Cl)cc3Cl)o2)n1`: the cell number change is -9.6%. Moreover, the AC50 under setting [2] is 2.06 µM [rising, single point].

Regarding `CCOc1ccc(CCNC(=O)CS(=O)Cc2nc(-c3ccc(C)cc3)oc2C)cc1` (centres undefined), the cell number change is 3.61%. The AC50 under setting [2] is 1.84 µM [falling, partial curve, poor fit].

For `COC(=O)C1=CN(c2cccc(C)c2)C=C(C(=O)OC)C1c1cc(OC)c(O)c([N+](=O)[O-])c1`, the AC50 under setting [2] is 1.46 µM [falling, full curve].
